Experimental data reported in US20240327512A1 (DUKE UNIVERSITY, published 2024).
Residue numbers refer to the chain shown, from its start. Results are given in words; binding and its absence hold for the method and conditions named. Some binding calls cover weakened binding; strength is not graded here.

T1: human TREM2 (Triggering Receptor Expressed on Myeloid cells-2), wild-type (human) (UniProt Q9NZC2)
T1 sequence (looked up): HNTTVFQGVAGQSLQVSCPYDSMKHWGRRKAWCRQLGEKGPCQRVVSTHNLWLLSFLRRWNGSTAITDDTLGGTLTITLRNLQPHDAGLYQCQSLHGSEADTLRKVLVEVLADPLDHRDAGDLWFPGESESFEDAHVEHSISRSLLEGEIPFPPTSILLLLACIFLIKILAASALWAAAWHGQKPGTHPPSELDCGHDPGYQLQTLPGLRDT

B1: antibody clone 13F4 (antibody, V domains shown)
VH: EVHLVESGGGLVQPGRSLKLSCAASRFTFSNYGMAWVRQAPTKGLEWVASISNSGGRTFYRDSVKARFTISRDSAESTLYLQMDSLRSEDTATYYCTTIGGGSTFDYWGQGVMVTVSS
VL: DVVMTQTPPSLSVAIGQSVSISCKSSQSLVYSDGKTYLHWLLQSPGRSPKRLIYQVSNLGSGVPDRFSGTGSQKDFTLKISRVEAEDLGVYYCAQTTHFPPTFGSGTKLEIK
B2: antibody clone 14B3 (antibody, V domains shown)
VH: B1 VH with H3Q, R26G, T28S, S54N, A66G, S74N, E76K, D84H
VL: B1 VL with I21M, R47G

Molecular target: T1, human TREM2 (Triggering Receptor Expressed on Myeloid cells-2), wild-type (human)
Assay: hybridoma supernatant screen: peptide ELISA and detection of TREM2 on the cell surface

Binder	binding
B1	binds
B2	binds
